# This list holds what a sample rich in hits left over. Records with an inconclusive call do not appear. The source made the active and inactive calls. The rule behind the calls is not given here.
# Experiments:
# Experiment in all cases: Primary Screen for Target Class Profiling of Small Molecule Inhibitors of Methyltransferases
# [1] = molecular target: Catechol O-methyltransferase (Homo sapiens) (UniProt P21964); conditions: purified enzyme, MTase-Glo SAH luminescence; at 40 µM; stronger effect = lower value
# Description: (§1) PI: Matthew D. Hall Ph.D. and Quinlin M. Hanson Ph.D.
# (§2) National Center for Advancing Translational Sciences (NCATS)
# (§3) National Institute of Health (NIH), Rockville, MD
# (§4) Target class profiling (TCP) is a chemical biology approach amenable to investigating understudied biological targets. TCP is achieved by developing a generalizable assay platform and applying it to screen a curated set of compound libraries against representative members of a target class. Small molecule methyltransferases (SMMTase) are a subclass of methyltransferase that act on metabolites to modulate signaling pathways, metabolize xenobiotics, or balance the available methyl pool. We screened four curated libraries totaling 27,574 unique compounds against the SMMTases nicotinamide N-methyltransferase (NNMT), phenylethanolamine N-methyltransferase (PNMT), histamine N-methyltransferase (HNMT), glycine N-methyltransferase (GNMT), catechol O-methyltransferase (COMT), and guanidinoacetate N-methyltransferase (GAMT). The data generated by this TCP can be leveraged for informed tool molecule development. For example, in the associated publication we identified a chemotype of HNMT-selective inhibitors. Additionally, we identified a putative SMMTase-selective inhibitor with potential as a tool molecule for studying broader methyltransferase biology.
# (§5) High-through put screening assays were developed at the National Center for Advancing Translational Science (NCATS) for the enzymes NNMT, PNMT, HNMT, GNMT, COMT, and GAMT. Enzymatic activity was measured as a function of SAM cofactor conversion using the MTase Glo kit (Promega) for all enzymes. All assays were performed in 1536-well format with substrates and SAM concentrations at KM values. Enzyme concentration and assay timing were optimized for 10-20% SAM conversion. Initial screening of 27,574 compounds was done as single-point assays using the highest compound concentration (40 uM). […] These compounds were replated in 11-point dose response and assayed against NNMT, PNMT, HNMT, GNMT, COMT, GAMT, and a counter-assay. The IC50 and efficacy (maximal response) values were determined for each dose-response curve. These values are also accounted for in the area under the curve (AUC) values.
# (§6) PROTOCOL TABLE (as described by Inglese J, Shamu CE and Guy RK. 2007)
# (§7) SEQUENCE No. (e.g., 1, 2, 3, etc.); […] (e.g., Cells, Incubation, Reagent, etc.); VALUE; DESCRIPTION.
# (§8) 1; Reagent; 2 uL; SMMTase Enzyme (2x) in reaction buffer, columns 1- 48.
# (§9) 2; Reagent; 1 uL; SAM (4x) in reaction buffer, columns 1-48.
# (§10) 3; Controls; 23 nL; DMSO in column 4; sinefungin in DMSO (0 uM - 40 uM) in 7-point 1:2 dilution series (n = 2) in column 2.
# (§11) 4; Compounds; 23 nL; Columns 5-48.
# (§12) 5; Reagent; 1 uL; Substrate (4x) in reaction buffer, columns 2-48.
# (§13) 6; Time; 20-30 min; Incubation.
# (§14) 7; Reagent; 1 uL; MTase-Glo reagent (5X), columns 1-48.
# (§15) 8; Time; 30 min; Incubation.
# (§16) 9; Reagent; 5 uL; MTase-Glo Detection reagent, columns 1-48.
# (§17) 10; Time; 30 min; Incubation, luminescence evolution.
# (§18) 11; Detection; Luminescence; ViewLux uHTS Microplate Imager (PerkinElmer).
# (§19) NOTES (numbers refer to Sequence numbers above)
# (§20) 1, 2, 5. White Medium Binding Greiner 1536-well plates (Cat #789175-F, Greiner Bio-One, Monroe, NC); Reaction buffer: 50 mM Tris, pH 8.0, 3 mM MgCl2, 1 mM EDTA, 50 mM NaCl, 1 mM DTT, and 0.1 mg/mL BSA. Evaporation was prevented by covering assay plates with metal lids containing holes to allow gas diffusion.
# (§21) 1. Six SMMTase were profiled: HNMT, GNMT, PNMT, COMT, NNMT, GAMT
# (§22) 5. The corresponding substrate was used for each enzyme: HNMT - 5.3 uM Histamine; GNMT - >500 uM Glycine; PNMT - 16.2 uM Norephinephrine; COMT - 13.7 uM Norephinephrine; NNMT - 3.8 uM Nicotinamide; GAMT - 2.5 uM Guanidinoacetate.6, 8, 10. Room temperature
# (§23) 6. Final reaction conditions: 10 nM COMT, 5 uM SAM, 15 uM norepinephrine, 50 mM Tris, pH 8.0, 3 mM MgCl2, 1 mM EDTA, 50 mM NaCl, 1 mM DTT, and 0.1 mg/mL BSA; refer to tables 2 and S1 for specific timing.
# 8. […]
# [2] = molecular target: Glycine N-methyltransferase (Homo sapiens) (UniProt Q14749); conditions: purified enzyme, MTase-Glo SAH luminescence; measured here: GNMT inhibition; at 40 µM; stronger effect = lower value
# Description: as §1, §2, §3, §4, §5, §6, §7, §8, §9, §10, §11, §12, §13, §14, §15, §16, §17, §18, §19, §20, §21, §22, §23
# 8. […]
# [3] = molecular target: Guanidinoacetate N-methyltransferase (Homo sapiens) (UniProt Q14353); conditions: purified enzyme, MTase-Glo SAH luminescence; measured here: GAMT inhibition; at 40 µM; stronger effect = lower value
# Description: as §1, §2, §3, §4, §5, §6, §7, §8, §9, §10, §11, §12, §13, §14, §15, §16, §17, §18, §19, §20, §21, §22, §23
# 8. […]
# [4] = molecular target: Histamine N-methyltransferase (Homo sapiens) (UniProt P50135); conditions: purified enzyme, MTase-Glo SAH luminescence; measured here: HNMT inhibition; at 40 µM; stronger effect = lower value
# Description: as §1, §2, §3, §4, §5, §6, §7, §8, §9, §10, §11, §12, §13, §14, §15, §16, §17, §18, §19, §20, §21, §22, §23
# 8. […]
# [5] = molecular target: Nicotinamide N-methyltransferase (Homo sapiens) (UniProt P40261); conditions: purified enzyme, MTase-Glo SAH luminescence; measured here: NNMT inhibition; at 40 µM; stronger effect = lower value
# Description: as §1, §2, §3, §4, §5, §6, §7, §8, §9, §10, §11, §12, §13, §14, §15, §16, §17, §18, §19, §20, §21, §22, §23
# 8. […]
# [6] = molecular target: Phenylethanolamine N-methyltransferase (Homo sapiens) (UniProt P11086); conditions: purified enzyme, MTase-Glo SAH luminescence; measured here: PNMT inhibition; at 40 µM; stronger effect = lower value
# Description: as §1, §2, §3, §4, §5, §6, §7, §8, §9, §10, §11, §12, §13, §14, §15, §16, §17, §18, §19, §20, §21, §22, §23
# 8. […]
# % is set by controls: 0 for no effect and ±100 for the full control effect.
Structure (SMILES),"activity change, negative = inhibition [1]","activity change, negative = inhibition [2] [%]","activity change, negative = inhibition [3] [%]","activity change, negative = inhibition [4] [%]","activity change, negative = inhibition [5] [%]","activity change, negative = inhibition [6] [%]"
O=C(Nc1cccc(C(F)(F)F)c1)c1ccccc1NCc1ccncc1,inactive: -0.028%,5.97,-2.48,1.15,-17.7,-3.66
N#Cc1ccc2c(c1)CCN(CCC1CCC(NC(=O)c3ccnc4ccccc34)CC1)C2 (stereo not drawn),inactive: 2.42%,-1.42,2.04,3.95,-24.4,-3.51
COc1ccc(-c2c(C)c(C(=O)NN3CCCCC3)nn2-c2ccc(Cl)cc2Cl)cc1,inactive: -1.9%,-3.88,-1.92,3,-27.5,-8.88

# Reference: PubChem BioAssay AID1745853 (National Center for Advancing Translational Sciences (NCATS), 2022)
